# From PubChem BioAssay AID504834 (National Center for Advancing Translational Sciences (NCATS), 2011)
# Out of some 320,000 compounds screened, about 22,000 (6.9%) were called active. This list was built around the results that the source calls inconclusive (neither active nor inactive); the mix of calls is not that of the screen. Calls come from the whole dose curve; as a rule, active = well fitted inhibition curve with a large enough effect; inconclusive = small, poorly fitted or top-dose-only effect, or another doubt; inactive = no such curve, though single readings can be large or run the other way. Potencies beside an inconclusive call are fits to weak or partial responses and may not hold up.
# Assay: Primary qHTS for delayed death inhibitors of the malarial parasite plastid, 96 hour incubation
# Settings: P. falciparum luciferase reporter growth; series mostly up to 28.7 µM; activity change, negative = inhibition: at the top concentration
# Procedure, shortened: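 Two parasite generations (96 h, 37 C, 5% CO2) of compound exposure in infected erythrocytes (0.05% parasitemia, 2% hematocrit). Luciferase-reporter P. falciparum; decreased luminescence indicates inhibited growth, aimed at apicoplast-acting delayed death.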
# % is set by controls: 0 for no effect and ±100 for the full control effect; potency is the fitted concentration of half-maximal effect.
Structure (SMILES),Potency,"activity change, negative = inhibition"
COc1cc(-n2c(C)nc3cccnc32)c(Cl)cc1C(=O)O,"inconclusive: 1.85 µM [inhibitor, full curve, poor fit]",
O=c1c2ccccc2n(CC(O)CN2CCCCC2)c2ccccc12 (stereo not given),"inconclusive: 13.1 µM [inhibitor, single point]",
CSc1ccc(CCNC(=O)CCc2nnc3ccc(NCCCN4CCCC4=O)nn23)cc1,"inconclusive: 18.5 µM [inhibitor, single point]",
O=[N+]([O-])c1cccc(-c2nnc(SCc3cccnc3)o2)c1,,inactive: 9.15%
CCOc1cccc(NC(=O)CSc2nncn2N)c1,"inconclusive: 10.4 µM [inhibitor, single point]",
CCc1cc(=O)oc2c(C)c(OC(C)C(=O)N3CCC[C@@H]3C(=O)O)ccc12 (stereo not given in full),,inactive: 0.0714%
CCn1nnc2cc(C(=O)NCC(c3ccccc3OC)N(C)C)ccc21 (stereo not given),,inactive: -13.9%
COc1ccc(CNC(=O)C23CN(Cc4ccccc4)CC2C(c2ccc([N+](=O)[O-])cc2)=NO3)cc1 (stereo not given),active: 13.1 µM,
O=C(CCc1ccccc1)NNC(=S)Nc1ccc(F)cc1,"inconclusive: 18.5 µM [inhibitor, single point]",
CCCCCCn1c(=O)c(C(=O)Nc2ncccc2C)c(O)c2ccccc21,"inconclusive: 10.4 µM [inhibitor, partial curve]",
CCc1ccc(S(=O)(=O)NCc2cn3ccsc3n2)s1,,inactive: 14.3%
CCn1nnnc1SCC(=O)N1c2ccccc2CCc2ccccc21,"inconclusive: 16.5 µM [inhibitor, single point]",
CCOC(=S)N/C(=N\S(=O)(=O)c1ccc(C)cc1)c1ccccc1,,inactive: 20.5%
CCNC(=S)N(CCN(C)C)Cc1cc2cc3c(cc2[nH]c1=O)OCO3,"inconclusive: 10.4 µM [inhibitor, single point]",
CC(C(=O)Nc1ncccn1)(c1ccccc1)c1ccccc1,"inconclusive: 1.04 µM [inhibitor, full curve]",
CCN1CCN(S(=O)(=O)c2cc(OCC(=O)NC3CCCCC3)c(C)cc2Cl)CC1,,inactive: 2.42%
CN1CCC(OC(=O)c2cccc(Cl)c2)CC1,"inconclusive: 0.0522 µM [inhibitor, full curve]",
Cc1ccc(-c2csc(N(CCO)CCCn3c(C(F)(F)F)nc4cc(C(F)(F)F)ccc43)n2)cc1,"inconclusive: 4.15 µM [inhibitor, single point]",
O=C1C=C(c2ccc(-c3ccccc3)c(F)c2)C[C@@H](c2ccc(Cl)cc2)C1,"inconclusive: 18.5 µM [inhibitor, single point]",
O=S(=O)(c1ccccc1)c1cnc2ccccc2c1,,inactive: 33.1%
Cc1cc(C)nc(N2N=C(C(F)(F)F)CC2=O)n1,,inactive: 41.3%
COc1ccc(OC)c(CN2CCN(C(=O)c3ccc(NS(=O)(=O)c4cccc([N+](=O)[O-])c4)cc3)CC2)c1,"inconclusive: 11.7 µM [inhibitor, single point]",
Cc1cc(C)c2nc(N3CCC(C(=O)N4CCCC4)CC3)sc2c1,"inconclusive: 0.147 µM [inhibitor, full curve, poor fit]",
COc1ccc([N+](=O)[O-])cc1NC(=O)C1CCCN1S(=O)(=O)c1cccs1 (stereo not given),,inactive: -14.9%

# Complete entries, looked up by structure.
# O=C1C=C(c2ccc(-c3ccccc3)c(F)c2)C[C@@H](c2ccc(Cl)cc2)C1 as listed: Potency: inconclusive: 18.5 µM [inhibitor, single point]
# CN1CCC(OC(=O)c2cccc(Cl)c2)CC1 as listed: Potency: inconclusive: 0.0522 µM [inhibitor, full curve]

# Next results follow.

Structure (SMILES),Potency,"activity change, negative = inhibition"
O=C(NCc1ccccc1)c1ccc(-c2ccccc2C(F)(F)F)o1,"inconclusive: 18.5 µM [inhibitor, single point]",
O=C(N/N=C/c1ccc2cccnc2c1)c1ccco1,,inactive: 58.2%
CCN(CC(=O)Nc1c(F)cccc1F)C(=O)c1cccc(S(=O)(=O)N2CCCCCC2)c1,"inconclusive: 11.7 µM [inhibitor, partial curve, poor fit]",
COc1cccc(OCC(O)CNC2CCCC2)c1 (stereo not given),"inconclusive: 0.37 µM [inhibitor, partial curve, poor fit]",
CC(C)(CNC(=O)c1ccc(Cl)c(S(=O)(=O)N2CCc3ccccc3C2)c1)N1CCOCC1,active: 7.38 µM,
CC(=O)Cc1nsc(NC(=O)c2ccc(-c3cccc(Cl)c3)o2)n1,,inactive: -11.3%
Cc1nc(NC(=O)COc2ccc(Cl)cc2)sc1C(=O)N(C)C,,inactive: -5.05%
CCc1ccc(N/C(SC)=C(/C#N)C(N)=O)cc1,,inactive: -0.985%
NS(=O)(=O)c1cccc(NC(=O)COC(=O)CCN2C(=O)c3ccccc3C2=O)c1,"inconclusive: 18.5 µM [inhibitor, single point]",
CCN(CC)CC(=O)Nc1scc2c1c(=O)oc1ccccc12,,inactive: 0%
Cc1ccc(-n2c([S-])c(C(=O)Nc3ccc(OC(F)F)cc3)[n+]3ccc(C(=O)NCCO)cc23)cc1C,"inconclusive: 10.4 µM [inhibitor, partial curve]",
COC(=O)c1ccccc1C(=O)N1CCC(CCC(=O)NC2CC2)CC1,"inconclusive: 11.7 µM [inhibitor, single point]",
CCOC(=O)C1CCN(C(=O)CCN2C(=O)C3C4C=CC(C4)C3C2=O)CC1 (stereo not given),active: 5.22 µM,
CCCCn1c(CNC(=O)C(C)(C)C)nc2ccccc21,"inconclusive: 3.29 µM [inhibitor, full curve, poor fit]",
O=C(N/N=C/c1c(O)n(CCc2ccc(F)cc2)c(=O)[nH]c1=O)c1ccccc1,"inconclusive: 2.33 µM [inhibitor, full curve]",
COC(=O)C1=CN(Cc2ccccc2)C=C(C(=O)OC)C1c1ccc(O)c(OC)c1,,inactive: 240%
CCCCNC(=O)C1CCC(CNS(=O)(=O)c2ccc(NC(C)=O)cc2)CC1 (stereo not given),"inconclusive: 4.15 µM [inhibitor, partial curve, poor fit]",
CSc1ccccc1NC(=O)COc1ccc(S(=O)(=O)N2CCCC2)cc1,"inconclusive: 18.5 µM [inhibitor, single point]",
CC(C(Sc1ccccc1N)c1ccccc1)[N+](=O)[O-] (stereo not given),,inactive: 0%
COc1cc(C(=O)NNC(=O)c2cc(S(=O)(=O)N(C)C)ccc2N2CCCC2)cc(OC)c1OC,"inconclusive: 18.5 µM [inhibitor, single point]",
CN(CCCC1CCCC1)C(=O)c1cc(COc2c(F)cccc2F)on1,"inconclusive: 18.5 µM [inhibitor, single point]",
N#Cc1c(Nc2ccccc2)c(/C=N/NCCO)c[nH]c1=O,"inconclusive: 10.4 µM [inhibitor, partial curve, poor fit]",
Cc1ccccc1NC(=O)CCC(=O)N/N=C/c1c[nH]c2ccccc12,"inconclusive: 10.4 µM [inhibitor, single point]",
COc1cc(C(=S)N2CCOCC2)ccc1OC(=O)c1cc([N+](=O)[O-])cc([N+](=O)[O-])c1,"inconclusive: 18.5 µM [inhibitor, single point]",

Structure (SMILES),Potency,"activity change, negative = inhibition"
COc1ccc(CCNC(=O)c2cc3c(=O)n(C)c4ccccc4c3n2C)cc1OC,"inconclusive: 11.7 µM [inhibitor, single point]",
NC(=O)c1cc(S(=O)(=O)N2CCCC2)ccc1OCCOc1ccccc1,"inconclusive: 18.5 µM [inhibitor, single point]",
C[C@@]12CC[C@H]3[C@@H](CC[C@@H]4C[C@H]5S[C@H]5C[C@]43C)[C@H]1CC[C@H]2O,"inconclusive: 8.09 µM [inhibitor, single point]",
O=C(NNC(=O)c1csc(-c2cnccc2C(F)(F)F)n1)c1ccc(C(F)(F)F)cc1,"inconclusive: 10.4 µM [inhibitor, partial curve, poor fit]",
CC(=O)c1cccc(NC(=O)N2CCCC2C(=O)NCc2ccc3c(c2)OCO3)c1 (stereo not given),active: 13.1 µM,
COc1ccc(NC(=O)c2cc(C(C)C)on2)c(OC)c1,"inconclusive: 18.5 µM [inhibitor, single point]",
Cc1cc(C(N)=O)nn1-c1c(Cl)cc(Cl)cc1Cl,"inconclusive: 4.15 µM [inhibitor, single point]",
O=C(Nc1ccc(O)cc1)c1cccc(Oc2ccc([N+](=O)[O-])cc2)c1,"inconclusive: 10.4 µM [inhibitor, single point]",
CCC(=O)NC(=S)Nc1ccc(N2CCOCC2)cc1,,inactive: 36.7%
NC(=O)CNC(=O)[C@@H]1CC2(CC(c3cccc([N+](=O)[O-])c3)=NO2)CN1C(=O)c1ccccc1 (stereo not given in full),"inconclusive: 14.7 µM [inhibitor, single point]",
CC1Cc2cc(S(=O)(=O)N3CCN(c4cccc(Cl)c4)CC3)ccc2N1C(=O)C1CC1 (stereo not given),"inconclusive: 6.57 µM [inhibitor, partial curve]",
COc1ccc(/C=N/NC(=O)c2cc(=O)[nH]c3ccccc23)cc1OC,,inactive: 62.6%
CCc1ccccc1NC(=O)CCc1c(C)nn(-c2ccc(N3CCOCC3)nn2)c1C,,inactive: 58.7%
O=C1C(=O)N(CNc2ccccn2)c2ccccc21,"inconclusive: 10.4 µM [inhibitor, single point]",
COc1ccc(-c2nc3n(c(=O)c2C#N)CCS3)cc1,,inactive: 11.7%
N#Cc1ccc(-c2csc(NC(=O)/C=C/c3cccs3)n2)cc1,active: 10.4 µM,
Cc1ccc2ccccc2[n+]1CCCS(=O)(=O)[O-],,inactive: 47.2%
CC(=O)NCC(=O)N(C)C(C(=O)Nc1ccc(C(C)C)cc1)c1ccccc1 (stereo not given),,inactive: -18.2%
CC(=O)NC(CC(=O)Nc1cccc(S(=O)(=O)N2CCCCC2)c1)c1ccccc1 (stereo not given),"inconclusive: 16.5 µM [inhibitor, partial curve, poor fit]",
C=C(C)CN=c1scc(C)n1/N=C/c1ccco1,"inconclusive: 18.5 µM [inhibitor, single point]",
COc1ccc(NC(=S)N(CCCN2CCN(C)CC2)Cc2cccs2)cc1,"inconclusive: 18.5 µM [inhibitor, single point]",
CCOC(=O)c1c(C)n(C)c2ccc(OC(=O)c3ccc(N4C(=O)CCC4=O)cc3)cc12,"inconclusive: 10.4 µM [inhibitor, single point]",
